Here are results for one compound from the supplement of paper PMC6411743.

The target in this test is T1, NPAT (UniProt Q14207).
T1 sequence (whole entry): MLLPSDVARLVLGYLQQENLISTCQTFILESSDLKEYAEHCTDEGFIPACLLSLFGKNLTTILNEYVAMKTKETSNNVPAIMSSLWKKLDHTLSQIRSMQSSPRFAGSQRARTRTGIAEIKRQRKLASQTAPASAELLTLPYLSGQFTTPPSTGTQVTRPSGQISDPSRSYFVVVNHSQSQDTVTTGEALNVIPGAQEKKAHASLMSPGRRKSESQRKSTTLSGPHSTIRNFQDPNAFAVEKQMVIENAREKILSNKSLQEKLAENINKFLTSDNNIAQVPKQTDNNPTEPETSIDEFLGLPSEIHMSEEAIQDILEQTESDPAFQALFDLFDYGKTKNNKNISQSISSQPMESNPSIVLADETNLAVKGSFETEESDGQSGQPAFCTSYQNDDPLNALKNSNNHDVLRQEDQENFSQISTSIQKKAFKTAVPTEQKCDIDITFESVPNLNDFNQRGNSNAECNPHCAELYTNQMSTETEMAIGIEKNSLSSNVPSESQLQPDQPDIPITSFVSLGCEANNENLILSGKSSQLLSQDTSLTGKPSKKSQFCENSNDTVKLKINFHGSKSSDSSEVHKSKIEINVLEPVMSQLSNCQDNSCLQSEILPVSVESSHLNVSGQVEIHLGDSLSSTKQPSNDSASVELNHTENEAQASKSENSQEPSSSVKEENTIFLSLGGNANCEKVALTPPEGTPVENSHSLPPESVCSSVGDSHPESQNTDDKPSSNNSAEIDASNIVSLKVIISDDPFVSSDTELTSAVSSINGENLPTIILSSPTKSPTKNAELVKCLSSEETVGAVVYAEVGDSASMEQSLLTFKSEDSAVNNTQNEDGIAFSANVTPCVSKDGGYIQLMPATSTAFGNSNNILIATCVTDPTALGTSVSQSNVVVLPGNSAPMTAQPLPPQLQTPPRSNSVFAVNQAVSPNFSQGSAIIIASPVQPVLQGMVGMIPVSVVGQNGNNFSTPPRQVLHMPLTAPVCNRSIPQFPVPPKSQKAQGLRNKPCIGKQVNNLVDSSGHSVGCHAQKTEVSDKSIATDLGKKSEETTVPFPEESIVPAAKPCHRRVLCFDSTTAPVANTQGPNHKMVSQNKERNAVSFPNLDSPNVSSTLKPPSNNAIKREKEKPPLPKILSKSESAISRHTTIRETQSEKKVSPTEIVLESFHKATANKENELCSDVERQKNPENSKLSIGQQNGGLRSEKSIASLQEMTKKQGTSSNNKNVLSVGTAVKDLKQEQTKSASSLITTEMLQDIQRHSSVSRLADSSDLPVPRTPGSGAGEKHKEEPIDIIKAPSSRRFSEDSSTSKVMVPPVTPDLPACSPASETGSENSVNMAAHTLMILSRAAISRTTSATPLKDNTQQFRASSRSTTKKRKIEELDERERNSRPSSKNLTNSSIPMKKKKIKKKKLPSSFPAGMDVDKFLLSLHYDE
The test can be described thus: NP40-soluble protein abundance relative to vehicle (solubility fold change) (ratio); higher = more soluble protein in presence of GTP. As to the method: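 Solubility proteome profiling in Jurkat crude lysate. Lysate was treated with Mg-GTP (0.1-10 mM) for 10 min at room temperature and 3 min at 37 °C, then solubilised with 0.8% NP40 and benzonase, followed by ultracentrifugation. Proteins were quantified by TMT10 LC-MS/MS; the value is the NP40-soluble abundance relative to the NP40-processed vehicle, from 3 independent experiments.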

± gives the standard deviation of the averaged measurements. The list shows a part of the results.

On to `Nc1nc2c(ncn2[C@@H]2O[C@H](COP(=O)(O)OP(=O)(O)OP(=O)(O)O)[C@@H](O)[C@H]2O)c(=O)[nH]1` [guanosine triphosphate], for which the NP40-soluble protein abundance (concentration: 0.1mM) was determined as 1.06 ± 0.073; the NP40-soluble protein abundance (concentration: 0.5mM) was 1.06 ± 0.029; the NP40-soluble protein abundance (concentration: 1mM) worked out at 1.15 ± 0.049; the NP40-soluble protein abundance (concentration: 2mM) stood at 1.11 ± 0.052; the NP40-soluble protein abundance (concentration: 4mM) was determined as 1.16 ± 0.041; the NP40-soluble protein abundance (concentration: 6mM) was 1.2 ± 0.077. Moreover, the NP40-soluble protein abundance (concentration: 8mM) stood at 1.16 ± 0.071 and the NP40-soluble protein abundance (concentration: 10mM) is 1.15 ± 0.057.
